Laboratory results reported in PMC5041976.
Results are given in words; binding and its absence hold for the method and conditions named. Binding calls can cover weak binding; strength is not graded here. Tags and fused reporters may be left off the sequences shown. For some of these results: Binding seen in cells or lysates may run through a third protein.

B1: His-TCF21 (protein, UniProt O43680 1-179)
chain: MSTGSLSDVEDLQEVEMLECDGLKMDSNKEFVTSNESTEESSNCENGSPQKGRGGLGKRRKAPTKKSPLSGVSQEGKQVQRNAANARERARMRVLSKAFSRLKTTLPWVPPDTKLSKLDTLRLASSYIAHLRQILANDKYENGYIHPVNLTWPFMVAGKPESDLKEVVTASRLCGTTAS

Key:
HA-TCF21 (human) = target: T1, HA-TCF21 (human) (UniProt O43680); experiment: co-IP; HEK 293T cells co-transfected with two tagged proteins; IP by one tag (anti-GFP, anti-HA or anti-Flag), Western blot by the other tag; lysis in 50 mM Tris-HCl pH 7.4, 150 mM NaCl, 0.1% SDS, 1% NP-40, 0.5% sodium deoxycholate
T1 sequence: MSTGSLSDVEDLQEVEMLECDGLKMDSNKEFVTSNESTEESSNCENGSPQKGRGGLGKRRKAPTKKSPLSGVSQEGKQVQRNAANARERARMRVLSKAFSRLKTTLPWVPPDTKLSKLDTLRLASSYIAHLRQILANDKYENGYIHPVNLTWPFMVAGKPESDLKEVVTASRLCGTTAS

GST-ERα Δ2 = experiment: pull-down; GST pull-down in vitro: purified His-TCF21 incubated with immobilized GST-ERα Δ2 or GST alone; bound proteins by Western blot (Pierce GST Protein Interaction Pull-Down Kit); both purified

| Molecule | binding (HA-TCF21 (human)) | binding (GST-ERα Δ2) |
| --- | --- | --- |
| Flag-tagged ERα Δ2 (domain or fragment) | binds |  |
| Flag-tagged ERα Δ3 (domain or fragment) | no binding |  |
| Flag-tagged ERα Δ1 (domain or fragment) | no binding |  |
| B1 |  | binds |
